Results deposited as PubChem BioAssay AID1259308 (NCATS, 2017).
Shown is an unselected part of about 59,000 reagents tested. About 1,510 of them (2.6%) were called active. 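Calls use total luciferase alone and ignore viability, so some active siRNAs may act by altering cell number.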 A number with no mark means an inactive call. Reagents against one gene are numbered here. Not all columns of the deposit are shown.

Screen: 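Candidate targets for better recombinant protein yield in mammalian cells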 (primary screen)
Cell system: human HEK293 embryonic kidney cells stably expressing firefly luciferase (HEK-CMV-Luc2-Hygro)
Knock-down reagent: single siRNA against human genes, 0.8 pmol siRNA per well
Timing: 72 h
Detection: 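Reporter luminescence and viable-cell signal on separate replicate plates, given as percent of non-targeting control and median/MAD z-scores, plus per-cell luciferase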
Reading the numbers: total luciferase, z-score and total luciferase, % of control: higher = more reporter protein produced
Active means: 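Active when the median/MAD z-score for overall luciferase is greater than 3; a gene was taken forward for validation with new siRNAs if at least two of its three siRNAs passed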
Calls: active = raised luciferase; inactive = no rise

no.	gene	siRNA no.	total luciferase, z-score	total luciferase, % of control
1	ADGRG1 (GeneID 9289)	1	-0.83	65.4
2	ADGRG1 (GeneID 9289)	2	-1.23	57.5
3	ADGRG1 (GeneID 9289)	3	-0.643	69.1
4	RHOT2 (GeneID 89941)	1	0.173	85.3
5	RHOT2 (GeneID 89941)	2	2.8	138
6	RHOT2 (GeneID 89941)	3	-0.621	69.5
7	OPA1 (GeneID 4976)	1	-0.957	62.9
8	OPA1 (GeneID 4976)	2	1.01	102
9	OPA1 (GeneID 4976)	3	-0.505	71.8
10	CHD5 (GeneID 26038)	1	2.29	127
11	CHD5 (GeneID 26038)	2	-0.981	62.4
12	CHD5 (GeneID 26038)	3	0.361	89.1
13	SKIL (GeneID 6498)	1	4.87 (active)	179
14	SKIL (GeneID 6498)	2	0.209	86.1
15	SKIL (GeneID 6498)	3	-0.33	75.3
16	MYL10 (GeneID 93408)	1	-0.555	70.9
17	MYL10 (GeneID 93408)	2	-0.191	78.1
18	MYL10 (GeneID 93408)	3	1.99	121
19	NOX5 (GeneID 79400)	1	-1.16	58.9
20	NOX5 (GeneID 79400)	2	-1.72	47.6
21	NOX5 (GeneID 79400)	3	2.75	137
22	LOC728660 (GeneID 728660)	1	-1.35	55
23	LOC728660 (GeneID 728660)	2	-0.592	70.1
24	LOC728660 (GeneID 728660)	3	-0.012	81.6
25	GLUL (GeneID 2752)	1	-0.0443	81
26	GLUL (GeneID 2752)	2	0.369	89.2
27	GLUL (GeneID 2752)	3	4.03 (active)	162
28	DSC1 (GeneID 1823)	1	-0.133	79.2
29	DSC1 (GeneID 1823)	2	0.45	90.8
30	DSC1 (GeneID 1823)	3	-0.281	76.3
31	KCNIP4 (GeneID 80333)	1	0.979	101
32	KCNIP4 (GeneID 80333)	2	-0.653	68.9
33	KCNIP4 (GeneID 80333)	3	-2.44	33.3
34	CDYL (GeneID 9425)	1	1.5	112
35	CDYL (GeneID 9425)	2	0.726	96.3
36	CDYL (GeneID 9425)	3	-1.14	59.2
37	ARPP21 (GeneID 10777)	1	0.929	100
38	ARPP21 (GeneID 10777)	2	1.75	117
39	ARPP21 (GeneID 10777)	3	3.05 (active)	142
40	CNPY1 (GeneID 285888)	1	1.3	108
41	CNPY1 (GeneID 285888)	2	-0.567	70.6
42	CNPY1 (GeneID 285888)	3	-1.16	58.8
43	USP40 (GeneID 55230)	1	-0.434	73.3
44	USP40 (GeneID 55230)	2	-1.04	61.3
45	USP40 (GeneID 55230)	3	0.193	85.7
46	FHDC1 (GeneID 85462)	1	2.21	126
47	FHDC1 (GeneID 85462)	2	1.35	109
48	FHDC1 (GeneID 85462)	3	-0.601	69.9
49	IL17A (GeneID 3605)	1	0.538	92.6
50	IL17A (GeneID 3605)	2	-0.283	76.3
51	IL17A (GeneID 3605)	3	-1.23	57.3
52	TRPC4 (GeneID 7223)	1	0.448	90.8
53	TRPC4 (GeneID 7223)	2	-0.131	79.3
54	TRPC4 (GeneID 7223)	3	-0.183	78.2
55	CIMIP2C (GeneID 339778)	1	-0.219	77.5
56	CIMIP2C (GeneID 339778)	2	0.737	96.6
57	CIMIP2C (GeneID 339778)	3	-0.872	64.5

Sorted by “total luciferase, % of control” (lowest first): 6 of the entries above
gene	siRNA no.	total luciferase, z-score	total luciferase, % of control
IL17A (GeneID 3605)	3	-1.23	57.3
IL17A (GeneID 3605)	2	-0.283	76.3
CIMIP2C (GeneID 339778)	1	-0.219	77.5
TRPC4 (GeneID 7223)	3	-0.183	78.2
TRPC4 (GeneID 7223)	2	-0.131	79.3
TRPC4 (GeneID 7223)	1	0.448	90.8
